# The source gives many values for each of these; only a part stands here.
# Assay: Toxicokinetics and tissue disposition of total [14C] radioactivity after a single intratracheal dose of [14C]-PCB52 (0.157 mg/kg) in pregnant rats at GD 11±1
# Format: in vivo, Sprague–Dawley rats
# Experimental: Female Sprague–Dawley rats (8 weeks old) weighing 237–269.7 g (mean = 247.5 g) (Envigo RMS, LLC, Indianapolis, IN) were used for this study. All animal experiments were performed following the protocols evaluated and approved by the University of Iowa Institutional Animal Care and Use Committee (approval number 3091097). After arrival, the animals were acclimated for 7 days. The animals were housed in a light and temperature-controlled environment with ad libitum access to food and water during quarantine and throughout the study. Timed pregnancy was achieved by harem mating. , Briefly, one male and two female rats were placed together in the evening and checked for vaginal plug the following day. If vaginal plug was present, the male was removed from the breeding cage, and the gestation day 0 (GD 0), 0-day post coitum was assigned. Pregnancies were confirmed by ultrasound scan at GD 9. The dams were exposed at GD 11 (±1 day) to capture the period of early organogenesis and hormonal function, which falls within week 3 of human embryonic development. ,− On the day of the experiment, pregnant rats were intratracheally administered an average of 40 μg (range, 35–45 μg) of [^14C]-PCB52 in 100 μL of exposure solution. Although the dose used in this study exceeded the tolerable daily intake (TDI) of PCBs for healthy individuals, which is 1.6 μg per day for an individual weighing 80 kg, the use of higher acute doses has been established in toxicological studies intended for risk assessment. The intratracheal instillation method was chosen for administering [^14C]-PCB52 to represent inhalation exposures, capture exhaled concentration, and efficiently utilize the limited availability of the cost-intensive radiolabeled PCB52. , Although inhalation exposure would better represent real-world exposures to airborne LC-PCBs, it would not allow us to accurately measure the amount of PCB52 exhaled into the air after exposure and is experimentally infeasible. […] All intratracheal instillations were done under light anesthesia, achieved using a 4% isoflurane concentration via a Fortec vaporizer (Cyprane, Keighley, UK). The animals recovered from anesthesia within 1 min. Subsequently, the animals were housed within a cylindrical glass chamber measuring 2 L in volume, equipped with glass drainage mechanisms to facilitate urine collection and a metallic screen to segregate urine from feces (as in Figure S1). Air was drawn from the chamber at 6.0 L/min through a cartridge containing the XAD-2 polymeric resin to capture any exhaled [^14C]-PCB52. For periods longer than 24 h postexposure, exposed dams were placed in a metabolic cage, which was fitted with a cartridge containing XAD-2 to capture exhaled [^14C]-PCB52 as in other end points.
# Maternal blood, urine, and feces samples were collected immediately before and at 0.21, 1.67, 12, 24, 48, and 96 h after lung dosing. The exposed dams were euthanized using 4% isoflurane, followed by cervical dislocation and exsanguination via a cardiac puncture. Euthanasia was consistently performed during the light cycle. Dams’ fur was wiped and analyzed for radioactivity. Using the retro-orbital blood collection method, 0.5–1.5 mL ([…] of an exposed pregnant rat’s body weight) of blood sample was collected from each of the dams until the individual dams were necropsied for whole-body tissue harvesting. At the end of the exposure period, the chamber’s interior walls were rinsed separately with water and acetone/hexane (25 – 45 mL) and wiped to measure residues. From the collected whole blood samples, 100 μL were aliquoted into three vials each, and the remaining blood was allowed to clot at room temperature before being centrifuged to yield serum. The placentas, developing fetuses, and whole-body tissue samples were harvested immediately before exposure and at 0.21, 1.67, 12, 24, and 96 h postexposure. […]
# [1] = Matter in colon, 12 h post-exposure
# [2] = Matter in colon, 24 h post-exposure
# [3] = Matter in colon, 96 h post-exposure
# [4] = Pituitary, 0.21 h post-exposure
# [5] = Pituitary, 1.67 h post-exposure
# [6] = Rectal amp., 0.21 h post-exposure
# [7] = Rectal amp., 1.67 h post-exposure
# [8] = Rectal amp., 12 h post-exposure
# [9] = Rectal amp., 24 h post-exposure
# [10] = Rectal amp., 96 h post-exposure
# [11] = Small intestine, 0.21 h post-exposure
# [12] = Small intestine, 1.67 h post-exposure
# [13] = Small intestine, 12 h post-exposure
# [14] = Small intestine, 24 h post-exposure
# [15] = Small intestine, 96 h post-exposure
structure (smiles),measurement,setting,value
"Clc1ccc(Cl)c(-c2cc(Cl)ccc2Cl)c1 [PCB52, 2,2′,5,5′-Tetrachlorobiphenyl]",Percent tissue distribution,"Matter in colon, 1.67 h post-exposure",0.11%
same,Conc. per mg wet tissue,[1],65.87 dpm/mg
same,Percent tissue distribution,[1],4.20%
same,Conc. per mg wet tissue,[2],66.81 dpm/mg
same,Percent tissue distribution,[2],5.74%
same,Conc. per mg wet tissue,[3],10.10 dpm/mg
same,Percent tissue distribution,[3],0.36%
same,C96,Matter in duodenum,22.17 dpm/mg
same,C96,Matter in intestine,6.62 dpm/mg
same,C96,Matter in stomach,4.02 dpm/mg
same,C96,Muscle,16.28 dpm/mg
same,Conc. per mg wet tissue,"Muscle, 1.67 h post-exposure",12.39 dpm/mg
same,Percent tissue distribution,"Muscle, 1.67 h post-exposure",16.65%
same,Conc. per mg wet tissue,"Muscle, 12 h post-exposure",2.86 dpm/mg
same,Percent tissue distribution,"Muscle, 12 h post-exposure",5.23%
same,Conc. per mg wet tissue,"Muscle, 24 h post-exposure",6.76 dpm/mg
same,Percent tissue distribution,"Muscle, 24 h post-exposure",10.09%
same,Percent tissue distribution,"Muscle, 96 h post-exposure",15.01%
same,C96,Ovary,15.41 dpm/mg
same,Conc. per mg wet tissue,"Ovary, 96 h post-exposure",1.95 dpm/mg
same,C96,Pancreas,18.96 dpm/mg
same,C96,Pituitary gland,378.12 dpm/mg
same,Conc. per mg wet tissue,[4],0.08 dpm/mg
same,Percent tissue distribution,[4],0.01%
same,Conc. per mg wet tissue,[5],2.59 dpm/mg
same,Percent tissue distribution,[5],0.002%
same,Conc. per mg wet tissue,"Pituitary, 12 h post-exposure",1.15 dpm/mg
same,Percent tissue distribution,"Pituitary, 12 h post-exposure",0.001%
same,Conc. per mg wet tissue,"Pituitary, 24 h post-exposure",1.15 dpm/mg
same,Percent tissue distribution,"Pituitary, 24 h post-exposure",0.002%
same,Conc. per mg wet tissue,"Pituitary, 96 h post-exposure",0.08 dpm/mg
same,Percent tissue distribution,"Pituitary, 96 h post-exposure",0.02%
same,C96,Placenta,0.74 dpm/mg
same,Conc. per mg wet tissue,"Placenta, 0.21 h post-exposure",9.19 dpm/mg
same,Percent tissue distribution,"Placenta, 0.21 h post-exposure",0.17%
same,Conc. per mg wet tissue,"Placenta, 1.67 h post-exposure",6.13 dpm/mg
same,Percent tissue distribution,"Placenta, 1.67 h post-exposure",0.21%
same,Conc. per mg wet tissue,"Placenta, 12 h post-exposure",9.49 dpm/mg
same,Percent tissue distribution,"Placenta, 12 h post-exposure",0.04%
same,Conc. per mg wet tissue,"Placenta, 24 h post-exposure",10.39 dpm/mg
same,Percent tissue distribution,"Placenta, 24 h post-exposure",0.11%
same,Conc. per mg wet tissue,"Placenta, 96 h post-exposure",4.93 dpm/mg
same,Percent tissue distribution,"Placenta, 96 h post-exposure",0.02%
same,C96,Rectal Amp.,48.04 dpm/mg
same,Conc. per mg wet tissue,[6],14.88 dpm/mg
same,Percent tissue distribution,[6],0.20%
same,Conc. per mg wet tissue,[7],5.18 dpm/mg
same,Percent tissue distribution,[7],0.12%
same,Conc. per mg wet tissue,[8],1.10 dpm/mg
same,Percent tissue distribution,[8],0.30%
same,Conc. per mg wet tissue,[9],1.73 dpm/mg
same,Percent tissue distribution,[9],0.22%
same,Conc. per mg wet tissue,[10],1.12 dpm/mg
same,Percent tissue distribution,[10],0.09%
same,C96,Salivary gland,10.94 dpm/mg
same,Conc. per mg wet tissue,"Serum, 0.21 h post-exposure",5.04 dpm/mg
same,Percent tissue distribution,"Serum, 0.21 h post-exposure",3.05%
same,Conc. per mg wet tissue,"Serum, 1.67 h post-exposure",7.66 dpm/mg
same,Percent tissue distribution,"Serum, 1.67 h post-exposure",1.36%
same,Conc. per mg wet tissue,"Serum, 12 h post-exposure",9.41 dpm/mg
same,Percent tissue distribution,"Serum, 12 h post-exposure",0.69%
same,Conc. per mg wet tissue,"Serum, 24 h post-exposure",8.23 dpm/mg
same,Percent tissue distribution,"Serum, 24 h post-exposure",0.92%
same,Conc. per mg wet tissue,"Serum, 96 h post-exposure",2.68 dpm/mg
same,Percent tissue distribution,"Serum, 96 h post-exposure",0.21%
same,C96,Skin,26.05 dpm/mg
same,Conc. per mg wet tissue,"Skin, 0.21 h post-exposure",14.76 dpm/mg
same,Percent tissue distribution,"Skin, 0.21 h post-exposure",9.66%
same,Conc. per mg wet tissue,"Skin, 1.67 h post-exposure",29.78 dpm/mg
same,Percent tissue distribution,"Skin, 1.67 h post-exposure",18.89%
same,Conc. per mg wet tissue,"Skin, 12 h post-exposure",12.17 dpm/mg
same,Percent tissue distribution,"Skin, 12 h post-exposure",24.12%
same,Conc. per mg wet tissue,"Skin, 24 h post-exposure",13.13 dpm/mg
same,Percent tissue distribution,"Skin, 24 h post-exposure",19.52%
same,Conc. per mg wet tissue,"Skin, 96 h post-exposure",3.58 dpm/mg
same,Percent tissue distribution,"Skin, 96 h post-exposure",8.73%
same,C96,Small Intestine,34.90 dpm/mg
same,Conc. per mg wet tissue,[11],11.75 dpm/mg
same,Percent tissue distribution,[11],1.17%
same,Conc. per mg wet tissue,[12],2.40 dpm/mg
same,Percent tissue distribution,[12],3.31%
same,Conc. per mg wet tissue,[13],0.85 dpm/mg
same,Percent tissue distribution,[13],1.58%
same,Conc. per mg wet tissue,[14],1.66 dpm/mg
same,Percent tissue distribution,[14],1.25%
same,Conc. per mg wet tissue,[15],0.56 dpm/mg
same,Percent tissue distribution,[15],0.47%
same,C96,Spleen,5.48 dpm/mg
same,C96,Stomach,8.52 dpm/mg
same,C96,Thymus,8.05 dpm/mg
same,Conc. per mg wet tissue,"Thymus, 0.21 h post-exposure",9.77 dpm/mg
same,Percent tissue distribution,"Thymus, 0.21 h post-exposure",0.11%
same,Conc. per mg wet tissue,"Thymus, 1.67 h post-exposure",5.38 dpm/mg
same,Percent tissue distribution,"Thymus, 1.67 h post-exposure",0.11%
same,Conc. per mg wet tissue,"Thymus, 12 h post-exposure",1.76 dpm/mg
same,Percent tissue distribution,"Thymus, 12 h post-exposure",0.03%
same,Conc. per mg wet tissue,"Thymus, 24 h post-exposure",1.62 dpm/mg
same,Percent tissue distribution,"Thymus, 24 h post-exposure",0.03%
same,Conc. per mg wet tissue,"Thymus, 96 h post-exposure",0.83 dpm/mg
same,Percent tissue distribution,"Thymus, 96 h post-exposure",0.01%
same,C96,Thyroid,6.46 dpm/mg
same,Conc. per mg wet tissue,"Thyroid, 1.67 h post-exposure",16.43 dpm/mg
same,Percent tissue distribution,"Thyroid, 1.67 h post-exposure",0.019%
same,Conc. per mg wet tissue,"Thyroid, 12 h post-exposure",3.25 dpm/mg
same,Percent tissue distribution,"Thyroid, 12 h post-exposure",0.003%
same,Conc. per mg wet tissue,"Thyroid, 24 h post-exposure",3.26 dpm/mg
same,Percent tissue distribution,"Thyroid, 24 h post-exposure",0.004%
same,Conc. per mg wet tissue,"Thyroid, 96 h post-exposure",0.66 dpm/mg
same,Percent tissue distribution,"Thyroid, 96 h post-exposure",0.001%
same,C96,Uterus,3.61 dpm/mg
